# Test results reported in the supplement of paper PMC4604168 (melanoma cell lines).
# The list shows a part of the results. Many values rest on one well or one pass, so single values are uncertain.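 Cells were imaged in 1,536-well plates, and nuclei stained with an antibody against cleaved PARP were counted against all DNA-stained nuclei to give the apoptosis fraction. Screening doses were chosen to leave most cells alive, and resting and induced cleaved-PARP levels differ strongly between cell lines.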
# Tested on: C32
# Experiment: cleaved PARP positive nuclei fraction relative to DMSO control; melanoma cells; higher = more apoptosis
# Settings: library dose: low library concentration; 72 h
row,SMILES,cleaved PARP positive nuclei fraction
1,"Cc1cc(Nc2cc(N3CCN(C)CC3)nc(Sc3ccc(NC(=O)C4CC4)cc3)n2)n[nH]1 [Tozasertib] + N#Cc1c(O)c2c(-c3ccc(-c4ccccc4O)cc3)csc2[nH]c1=O [A769662] (first compound 0.006 µM, partner dose 2 µM)",184%
2,"O=C(Nc1cc(C(F)(F)F)cc(C(F)(F)F)c1)c1cc(Cl)ccc1O + COc1ccc(COc2ccc(Cc3cnc(N)nc3N)cc2OC)cc1 [GW2580] (first compound 0.016 µM, partner dose 1 µM)",75%
3,"O=C(/C=C/c1cccnc1)NCCCCC1CCN(C(=O)c2ccccc2)CC1 + COc1cc(N2CCC(N3CCN(C)CC3)CC2)ccc1Nc1ncc(Cl)c(Nc2ccccc2S(=O)(=O)C(C)C)n1 [NVP-TAE684] (first compound 0.01 µM, partner dose 0.08 µM)",110%
4,"N#CC[C@H](C1CCCC1)n1cc(-c2ncnc3[nH]ccc23)cn1 [ruxolitinib] + Cn1cc(/C=C2\C(=O)Nc3cccnc32)c2ccccc21 [GW441756] (first compound 1 µM, partner dose 0.4 µM)",39.2%
5,"CCCCCCCCCCCCCCCCCCOP(=O)([O-])OC1CC[N+](C)(C)CC1 [Perifosine] + Oc1nc(-c2ccc(C(F)(F)F)cc2)nc2c1CSCC2 [XAV939] (first compound 0.4 µM, partner dose 2 µM)",69.9%
6,"O=C(/C=C/c1cccnc1)NCCCCC1CCN(C(=O)c2ccccc2)CC1 + Oc1nc(-c2ccc(C(F)(F)F)cc2)nc2c1CSCC2 [XAV939] (first compound 0.01 µM, partner dose 2 µM)",114%
7,"Cc1ccc(Nc2nccc(N(C)c3ccc4c(C)n(C)nc4c3)n2)cc1S(N)(=O)=O [Pazopanib] + N#Cc1c(O)c2c(-c3ccc(-c4ccccc4O)cc3)csc2[nH]c1=O [A769662] (first compound 0.4 µM, partner dose 2 µM)",69.8%
8,"N#CC[C@H](C1CCCC1)n1cc(-c2ncnc3[nH]ccc23)cn1 [ruxolitinib] + COc1cc2ncnc(Nc3ccc(Oc4ccccc4)cc3)c2cc1OC [SrcI1] (first compound 1 µM, partner dose 2 µM)",39.7%
9,"O=C(Nc1cc(C(F)(F)F)cc(C(F)(F)F)c1)c1cc(Cl)ccc1O + CCN(CC)CCCCNc1ncc2cc(-c3cc(OC)cc(OC)c3)c(NC(=O)NC(C)(C)C)nc2n1 [PD173074] (first compound 0.016 µM, partner dose 0.1 µM)",200%
10,"CCCCCCCCCCCCCCCCCCOP(=O)([O-])OC1CC[N+](C)(C)CC1 [Perifosine] + COc1ccc2c(c1)CCC1C2CCC2(C)C(NCCCCCCN3C(=O)C=CC3=O)CCC12 [U73122] (first compound 0.4 µM, partner dose 0.4 µM)",167%
11,"O=c1[nH]nc(Sc2ncc([N+](=O)[O-])s2)n1-c1ccc2c(c1)OCCO2 + N#Cc1c(O)c2c(-c3ccc(-c4ccccc4O)cc3)csc2[nH]c1=O [A769662] (first compound 0.2 µM, partner dose 2 µM)",67%
12,"O=c1[nH]nc(Sc2ncc([N+](=O)[O-])s2)n1-c1ccc2c(c1)OCCO2 + COc1ccc2c(c1)CCC1C2CCC2(C)C(NCCCCCCN3C(=O)C=CC3=O)CCC12 [U73122] (first compound 0.2 µM, partner dose 0.4 µM)",44.1%
13,"N#CC[C@H](C1CCCC1)n1cc(-c2ncnc3[nH]ccc23)cn1 [ruxolitinib] + O=C(Nc1ccccc1)c1cc([N+](=O)[O-])ccc1Cl [GW9662] (first compound 1 µM, partner dose 2 µM)",38.3%
14,"O=C(/C=C/c1cccnc1)NCCCCC1CCN(C(=O)c2ccccc2)CC1 + O=c1cc(-c2cccc3c2Sc2ccccc2S3)oc(N2CCOCC2)c1 [KU55933] (first compound 0.01 µM, partner dose 1 µM)",129%
15,"CCCCCCCCCCCCCCCCCCOP(=O)([O-])OC1CC[N+](C)(C)CC1 [Perifosine] + Cc1cc([N+](=O)[O-])ccc1NS(=O)(=O)c1cc(Cl)ccc1Cl [FH535] (first compound 0.4 µM, partner dose 1 µM)",140%
16,"N#CC[C@H](C1CCCC1)n1cc(-c2ncnc3[nH]ccc23)cn1 [ruxolitinib] + O=S(=O)(c1ccccc1)N(CC(F)(F)F)c1ccc(C(O)(C(F)(F)F)C(F)(F)F)cc1 [T0901317] (first compound 1 µM, partner dose 1.4 µM)",50.7%

# Single values from the list.
# cleaved PARP positive nuclei fraction with O=C(Nc1cc(C(F)(F)F)cc(C(F)(F)F)c1)c1cc(Cl)ccc1O + CCN(CC)CCCCNc1ncc2cc(-c3cc(OC)cc(OC)c3)c(NC(=O)NC(C)(C)C)nc2n1 [PD173074] (first compound 0.016 µM, partner dose 0.1 µM) reads 200%
# cleaved PARP positive nuclei fraction with O=C(/C=C/c1cccnc1)NCCCCC1CCN(C(=O)c2ccccc2)CC1 + O=c1cc(-c2cccc3c2Sc2ccccc2S3)oc(N2CCOCC2)c1 [KU55933] (first compound 0.01 µM, partner dose 1 µM) reads 129%

# Remaining list, next part.

row,SMILES,cleaved PARP positive nuclei fraction
1,"Cc1cn(-c2cc(NC(=O)c3ccc(C)c(Nc4nccc(-c5cccnc5)n4)c3)cc(C(F)(F)F)c2)cn1 [nilotinib] + COC(=O)c1sccc1S(=O)(=O)Nc1ccc(Nc2ccccc2)cc1OC [GSK0660] (first compound 0.2 µM, partner dose 1 µM)",78.8%
2,"Cc1ccc(Nc2nccc(N(C)c3ccc4c(C)n(C)nc4c3)n2)cc1S(N)(=O)=O [Pazopanib] + O=C(O)C(=O)Nc1sc2c(c1C(=O)O)CCNC2 [TCS401] (first compound 0.4 µM, partner dose 1.66667 µM)",142%
3,"N#CC[C@H](C1CCCC1)n1cc(-c2ncnc3[nH]ccc23)cn1 [ruxolitinib] + COc1ccc(COc2ccc(Cc3cnc(N)nc3N)cc2OC)cc1 [GW2580] (first compound 1 µM, partner dose 1 µM)",87.5%
4,"Cc1ccc(Nc2nccc(N(C)c3ccc4c(C)n(C)nc4c3)n2)cc1S(N)(=O)=O [Pazopanib] + CCc1ccc(CCOc2ccc(CC3SC(=O)NC3=O)cc2)nc1 [pioglitazone] (first compound 0.4 µM, partner dose 2 µM)",50.2%
5,"Cc1cc(Nc2cc(N3CCN(C)CC3)nc(Sc3ccc(NC(=O)C4CC4)cc3)n2)n[nH]1 [Tozasertib] + c1cc(-c2cnn3cc(-c4ccc(OCCN5CCCCC5)cc4)cnc23)ccn1 [Dorsomorphin] (first compound 0.006 µM, partner dose 0.4 µM)",39.9%
6,"Cc1ccc(Nc2nccc(N(C)c3ccc4c(C)n(C)nc4c3)n2)cc1S(N)(=O)=O [Pazopanib] + COC(=O)c1sccc1S(=O)(=O)Nc1ccc(Nc2ccccc2)cc1OC [GSK0660] (first compound 0.4 µM, partner dose 1 µM)",60.8%
7,"COc1cc([C@@H]2c3cc4c(cc3[C@@H](O[C@@H]3O[C@@H]5CO[C@@H](C)O[C@H]5[C@H](O)[C@H]3O)[C@H]3COC(=O)[C@H]23)OCO4)cc(OC)c1O [etoposide] + O=S(=O)(c1ccccc1)N(CC(F)(F)F)c1ccc(C(O)(C(F)(F)F)C(F)(F)F)cc1 [T0901317] (first compound 0.02 µM, partner dose 1.4 µM)",46.7%
8,"O=c1[nH]nc(Sc2ncc([N+](=O)[O-])s2)n1-c1ccc2c(c1)OCCO2 + c1cc(-c2cnn3cc(-c4ccc(OCCN5CCCCC5)cc4)cnc23)ccn1 [Dorsomorphin] (first compound 0.2 µM, partner dose 0.4 µM)",53.7%
9,"Cc1cc(Nc2cc(N3CCN(C)CC3)nc(Sc3ccc(NC(=O)C4CC4)cc3)n2)n[nH]1 [Tozasertib] + Oc1cc(-c2nc(-c3ccccc3)[nH]c2-c2ccncc2)ccc1Cl [L779450] (first compound 0.006 µM, partner dose 0.2 µM)",86%
10,"Cc1cc(Nc2cc(N3CCN(C)CC3)nc(Sc3ccc(NC(=O)C4CC4)cc3)n2)n[nH]1 [Tozasertib] + Cn1cc(/C=C2\C(=O)Nc3cccnc32)c2ccccc21 [GW441756] (first compound 0.006 µM, partner dose 0.4 µM)",159%
11,"Cc1cn(-c2cc(NC(=O)c3ccc(C)c(Nc4nccc(-c5cccnc5)n4)c3)cc(C(F)(F)F)c2)cn1 [nilotinib] + O=C(O)C(=O)Nc1sc2c(c1C(=O)O)CCNC2 [TCS401] (first compound 0.2 µM, partner dose 1.66667 µM)",86.9%
12,"Cc1cn(-c2cc(NC(=O)c3ccc(C)c(Nc4nccc(-c5cccnc5)n4)c3)cc(C(F)(F)F)c2)cn1 [nilotinib] + O=S(=O)(c1ccccc1)N(CC(F)(F)F)c1ccc(C(O)(C(F)(F)F)C(F)(F)F)cc1 [T0901317] (first compound 0.2 µM, partner dose 1.4 µM)",166%
13,"COc1cc([C@@H]2c3cc4c(cc3[C@@H](O[C@@H]3O[C@@H]5CO[C@@H](C)O[C@H]5[C@H](O)[C@H]3O)[C@H]3COC(=O)[C@H]23)OCO4)cc(OC)c1O [etoposide] + Cc1cc([N+](=O)[O-])ccc1NS(=O)(=O)c1cc(Cl)ccc1Cl [FH535] (first compound 0.02 µM, partner dose 1 µM)",129%
14,"N#CC[C@H](C1CCCC1)n1cc(-c2ncnc3[nH]ccc23)cn1 [ruxolitinib] + N#Cc1c(O)c2c(-c3ccc(-c4ccccc4O)cc3)csc2[nH]c1=O [A769662] (first compound 1 µM, partner dose 2 µM)",74.4%
15,"COc1cc([C@@H]2c3cc4c(cc3[C@@H](O[C@@H]3O[C@@H]5CO[C@@H](C)O[C@H]5[C@H](O)[C@H]3O)[C@H]3COC(=O)[C@H]23)OCO4)cc(OC)c1O [etoposide] + O=C1NC(=O)/C(=C/c2ccc(-c3ccc(F)cc3O)o2)S1 [AS252424] (first compound 0.02 µM, partner dose 1 µM)",41.5%
